Experiment in all cases: EMSA
For series [1], the target named is STAT1 wild-type (IFNg-activated, pTyr701) (Homo sapiens) (UniProt P42224). As to conditions: 4 ul whole cell extract (0.2% NP40/10 mM KCl and 420 mM KCl extraction buffers, 1 mM EDTA, 20 mM Hepes pH 7.4, vanadate, NaF, protease inhibitors) with 1 ng 32P duplex, protein in an extract, residues 1-746, label: 32P (Klenow end fill-in).
In series [2] the target is STAT1-E411A (IFNg-activated, pTyr701) (Homo sapiens) (UniProt P42224). The conditions noted are these: 4 ul whole cell extract (0.2% NP40/10 mM KCl and 420 mM KCl extraction buffers, 1 mM EDTA, 20 mM Hepes pH 7.4, vanadate, NaF, protease inhibitors) with 1 ng 32P duplex, protein in an extract, residues 1-746, label: 32P (Klenow end fill-in).
The target in series [3] is STAT1-E411A-GFP (IFNg-activated) (Homo sapiens) (UniProt P42224). The conditions noted are these: GFP homodimer band, prolonged binding under staurosporine; 4 ul whole cell extract (0.2% NP40/10 mM KCl and 420 mM KCl extraction buffers, 1 mM EDTA, 20 mM Hepes pH 7.4, vanadate, NaF, protease inhibitors) with 1 ng 32P duplex; protein in an extract; residues 1-746; protein details: C-terminal GFP; label: 32P (Klenow end fill-in).

Amino acid sequences for entries named in this document (tags omitted). Residues count along the entry.
UniProt P42224, 1-746: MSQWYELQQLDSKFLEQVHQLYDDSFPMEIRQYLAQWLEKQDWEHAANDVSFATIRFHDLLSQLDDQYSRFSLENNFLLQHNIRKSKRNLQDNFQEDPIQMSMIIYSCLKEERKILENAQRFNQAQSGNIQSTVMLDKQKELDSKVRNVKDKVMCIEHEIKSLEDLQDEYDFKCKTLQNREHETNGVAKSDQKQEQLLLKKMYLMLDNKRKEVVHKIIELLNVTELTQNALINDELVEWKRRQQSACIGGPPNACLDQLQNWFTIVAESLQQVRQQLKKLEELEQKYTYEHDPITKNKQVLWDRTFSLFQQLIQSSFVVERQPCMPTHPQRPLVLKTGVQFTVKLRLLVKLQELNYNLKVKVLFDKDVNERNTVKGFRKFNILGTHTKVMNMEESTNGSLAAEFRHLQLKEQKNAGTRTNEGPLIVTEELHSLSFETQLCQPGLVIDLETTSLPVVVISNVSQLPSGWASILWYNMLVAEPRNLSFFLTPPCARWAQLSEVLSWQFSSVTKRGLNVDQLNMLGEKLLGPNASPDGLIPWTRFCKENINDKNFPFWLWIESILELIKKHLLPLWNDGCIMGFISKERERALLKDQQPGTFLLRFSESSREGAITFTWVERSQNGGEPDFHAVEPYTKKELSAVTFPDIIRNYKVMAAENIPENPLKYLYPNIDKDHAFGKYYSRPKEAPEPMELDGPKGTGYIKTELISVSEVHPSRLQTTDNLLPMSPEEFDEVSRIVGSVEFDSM
UniProt P42224, 1-746 E411A: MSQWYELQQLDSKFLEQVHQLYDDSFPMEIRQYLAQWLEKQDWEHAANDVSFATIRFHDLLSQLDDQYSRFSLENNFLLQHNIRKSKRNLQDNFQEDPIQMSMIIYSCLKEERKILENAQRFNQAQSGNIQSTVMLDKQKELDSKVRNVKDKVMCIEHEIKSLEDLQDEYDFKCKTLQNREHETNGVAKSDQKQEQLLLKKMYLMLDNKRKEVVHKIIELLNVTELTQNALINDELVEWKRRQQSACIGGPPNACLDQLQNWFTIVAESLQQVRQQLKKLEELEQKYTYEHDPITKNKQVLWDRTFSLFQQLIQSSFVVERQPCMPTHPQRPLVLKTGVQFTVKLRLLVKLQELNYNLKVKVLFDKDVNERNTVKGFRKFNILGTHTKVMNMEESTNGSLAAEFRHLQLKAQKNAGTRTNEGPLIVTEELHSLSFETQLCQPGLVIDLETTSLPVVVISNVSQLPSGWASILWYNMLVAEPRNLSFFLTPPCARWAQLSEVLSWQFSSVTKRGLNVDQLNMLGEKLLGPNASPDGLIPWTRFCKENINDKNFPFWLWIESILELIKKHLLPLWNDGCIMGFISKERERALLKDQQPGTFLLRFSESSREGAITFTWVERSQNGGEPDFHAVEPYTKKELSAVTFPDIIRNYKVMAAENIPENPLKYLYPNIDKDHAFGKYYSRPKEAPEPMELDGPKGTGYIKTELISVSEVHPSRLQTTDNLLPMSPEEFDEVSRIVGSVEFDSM
UniProt P42224, 1-746 E421K: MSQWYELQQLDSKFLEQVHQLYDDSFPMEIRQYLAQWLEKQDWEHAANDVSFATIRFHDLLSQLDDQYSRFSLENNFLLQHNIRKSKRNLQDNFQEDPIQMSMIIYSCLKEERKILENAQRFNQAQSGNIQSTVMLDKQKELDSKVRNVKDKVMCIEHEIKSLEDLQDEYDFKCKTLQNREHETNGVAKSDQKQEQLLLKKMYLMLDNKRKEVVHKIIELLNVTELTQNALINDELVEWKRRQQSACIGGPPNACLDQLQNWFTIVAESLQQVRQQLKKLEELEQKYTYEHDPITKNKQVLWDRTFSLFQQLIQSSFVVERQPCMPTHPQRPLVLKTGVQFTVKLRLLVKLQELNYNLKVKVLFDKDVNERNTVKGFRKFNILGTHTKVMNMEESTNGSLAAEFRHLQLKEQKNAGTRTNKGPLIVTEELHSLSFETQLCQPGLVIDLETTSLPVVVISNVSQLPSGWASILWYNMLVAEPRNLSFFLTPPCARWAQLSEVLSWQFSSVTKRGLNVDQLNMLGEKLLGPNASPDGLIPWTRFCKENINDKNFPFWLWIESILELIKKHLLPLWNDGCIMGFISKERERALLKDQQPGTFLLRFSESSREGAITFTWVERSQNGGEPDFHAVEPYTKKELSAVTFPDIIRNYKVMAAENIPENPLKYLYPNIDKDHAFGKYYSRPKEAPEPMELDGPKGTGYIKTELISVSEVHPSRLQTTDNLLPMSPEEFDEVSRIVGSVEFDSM

For series [4], the system named is STAT1-E411A-GFP (IFNg-activated) + native STAT1 of HeLa cells (IFNg-activated). As to conditions: heterodimer of GFP-tagged and native STAT1; 4 ul whole cell extract (0.2% NP40/10 mM KCl and 420 mM KCl extraction buffers, 1 mM EDTA, 20 mM Hepes pH 7.4, vanadate, NaF, protease inhibitors) with 1 ng 32P duplex; protein in an extract; protein details: C-terminal GFP; label: 32P (Klenow end fill-in).

Series [5] addresses STAT1-E421K (IFNg-activated, pTyr701) (Homo sapiens) (UniProt P42224). As to conditions: slower dissociation than WT on 750x unlabeled M67 challenge; 4 ul whole cell extract (0.2% NP40/10 mM KCl and 420 mM KCl extraction buffers, 1 mM EDTA, 20 mM Hepes pH 7.4, vanadate, NaF, protease inhibitors) with 1 ng 32P duplex; protein in an extract; residues 1-746; label: 32P (Klenow end fill-in).

In series [6] the target is STAT1-WT-GFP (IFNg-activated) (Homo sapiens) (UniProt P42224). As to conditions: GFP homodimer band; 4 ul whole cell extract (0.2% NP40/10 mM KCl and 420 mM KCl extraction buffers, 1 mM EDTA, 20 mM Hepes pH 7.4, vanadate, NaF, protease inhibitors) with 1 ng 32P duplex; protein in an extract; residues 1-746; protein details: C-terminal GFP; label: 32P (Klenow end fill-in).

The test system of series [7] is STAT1-WT-GFP (IFNg-activated) + native STAT1 of HeLa cells (IFNg-activated). As to conditions: heterodimer of GFP-tagged and native STAT1; 4 ul whole cell extract (0.2% NP40/10 mM KCl and 420 mM KCl extraction buffers, 1 mM EDTA, 20 mM Hepes pH 7.4, vanadate, NaF, protease inhibitors) with 1 ng 32P duplex; protein in an extract; protein details: C-terminal GFP; label: 32P (Klenow end fill-in).

In series [8] the target is native STAT1 of HeLa cells (IFNg-activated) (UniProt P42224). The conditions noted are these: native homodimer band; 4 ul whole cell extract (0.2% NP40/10 mM KCl and 420 mM KCl extraction buffers, 1 mM EDTA, 20 mM Hepes pH 7.4, vanadate, NaF, protease inhibitors) with 1 ng 32P duplex; protein in an extract; label: 32P (Klenow end fill-in).
Where [9] appears, read: dimer and tetramer complexes, tetramer resists 750x M67.

Where cells or extracts were used, other partners may take part. For some assays here: A negative result means that nothing was seen under these conditions. For at least one entry, the source does not settle the construct or the ends of the probe. For some assays here: The comparison behind a weaker result is the experiment's own reference, which may not be listed here. For some assays here: At least one verdict was read from the data and is not stated in words by the source.

With “CGACATTTCCCGTAAATCTG (double strand) [M67]”, the binding result in series [1] (faster dissociation than mutants on 750x unlabeled M67 challenge), in series [2] (slower dissociation than WT on 750x unlabeled M67 challenge), in series [3], in series [4], in series [5] and in series [6] was “binds” each time. The binding result in series [7] and in series [8] was “binds” each time.

Take “CGTTTACCCCAAATTGACGGATTTACCCCAAC (double strand) [2x nonGAS]”: the binding result was “no binding” in series [1] and “binds more weakly” in series [2].

For “CGTTTCCCCGAAATTGACGGATTTACCCCAAC (double strand) [GAS-nonGAS]”, the binding result in series [1] and in series [2] was “binds” each time.

Consider “CGTTTCCCCGAAATTGACGGATTTCCCCGAAAC (double strand) [2x GAS]”, for which the binding result in series [1] (setting [9]) and in series [2] (setting [9]) was “binds” in each case.

These data come from PMC3507856.
